Experimental data published in publication PMC7790559.
These are yes or no findings as the source states them, for the method shown. In cells and extracts the contact can be indirect. Some entries that bind do so weakly or less than the wild type.

Amino acid sequences for entries named in this document (tags omitted). A change or cut given only in a name is not applied to a line headed by its entry. Chains listed by the source or under a name are the forms on record and can include a tag or linker.
sarcoplasmic reticulum Ca2+-ATPase 2a (SERCA2a), endogenous in H9c2 cells (rat (endogenous in H9c2)) (P11507, form named): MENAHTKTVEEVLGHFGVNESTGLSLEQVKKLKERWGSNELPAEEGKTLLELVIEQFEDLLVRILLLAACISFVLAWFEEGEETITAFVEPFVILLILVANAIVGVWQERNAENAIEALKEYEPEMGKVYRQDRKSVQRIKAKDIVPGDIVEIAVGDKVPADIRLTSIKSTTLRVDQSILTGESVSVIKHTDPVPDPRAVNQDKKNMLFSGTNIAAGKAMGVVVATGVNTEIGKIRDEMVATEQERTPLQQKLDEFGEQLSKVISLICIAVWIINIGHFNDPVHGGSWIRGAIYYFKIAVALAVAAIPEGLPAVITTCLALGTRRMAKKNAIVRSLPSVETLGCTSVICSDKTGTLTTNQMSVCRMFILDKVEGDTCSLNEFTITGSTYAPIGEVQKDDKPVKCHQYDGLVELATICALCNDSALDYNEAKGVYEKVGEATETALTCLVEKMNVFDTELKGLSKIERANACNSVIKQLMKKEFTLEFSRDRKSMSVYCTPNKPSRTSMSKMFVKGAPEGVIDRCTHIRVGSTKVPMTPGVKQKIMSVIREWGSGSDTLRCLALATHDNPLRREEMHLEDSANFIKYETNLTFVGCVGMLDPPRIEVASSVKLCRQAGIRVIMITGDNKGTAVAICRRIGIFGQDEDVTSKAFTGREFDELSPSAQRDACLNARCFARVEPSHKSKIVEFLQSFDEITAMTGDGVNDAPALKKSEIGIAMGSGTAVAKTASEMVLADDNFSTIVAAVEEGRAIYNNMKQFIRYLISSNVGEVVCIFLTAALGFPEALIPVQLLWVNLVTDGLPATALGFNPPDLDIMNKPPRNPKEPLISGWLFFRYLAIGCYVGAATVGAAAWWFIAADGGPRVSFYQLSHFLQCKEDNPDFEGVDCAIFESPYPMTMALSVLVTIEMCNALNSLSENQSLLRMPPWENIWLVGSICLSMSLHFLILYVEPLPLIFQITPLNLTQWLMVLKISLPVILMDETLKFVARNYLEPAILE

Target: sarcoplasmic reticulum Ca2+-ATPase 2a (SERCA2a), endogenous in H9c2 cells (rat (endogenous in H9c2)) (UniProt P11507)
Assay: co-IP; H9c2 lysates (cells treated with ISO 1 μmol/L and OPD 0.25, 0.5, 1 μmol/L); precipitated with SERCA2a antibody or IgG as control overnight at 4°C, Protein G magnetic beads, blotted with PLB/p-PLB antibody

binding: binds
B1: phospholamban (PLB), endogenous in H9c2 cells (protein, UniProt P61016 1-52)
chain: MEKVQYLTRSAIRRASTIEMPQQARQNLQNLFINFCLILICLLLICIIVMLL
